Experimental findings from patent US20110152352A1 are described below.

Sequences of proteins named here, by UniProt entry; tags and fusion partners are left off. A change or cut given only in a name is not applied to a line headed by its entry. Residues count along the entry.
UniProt P17844: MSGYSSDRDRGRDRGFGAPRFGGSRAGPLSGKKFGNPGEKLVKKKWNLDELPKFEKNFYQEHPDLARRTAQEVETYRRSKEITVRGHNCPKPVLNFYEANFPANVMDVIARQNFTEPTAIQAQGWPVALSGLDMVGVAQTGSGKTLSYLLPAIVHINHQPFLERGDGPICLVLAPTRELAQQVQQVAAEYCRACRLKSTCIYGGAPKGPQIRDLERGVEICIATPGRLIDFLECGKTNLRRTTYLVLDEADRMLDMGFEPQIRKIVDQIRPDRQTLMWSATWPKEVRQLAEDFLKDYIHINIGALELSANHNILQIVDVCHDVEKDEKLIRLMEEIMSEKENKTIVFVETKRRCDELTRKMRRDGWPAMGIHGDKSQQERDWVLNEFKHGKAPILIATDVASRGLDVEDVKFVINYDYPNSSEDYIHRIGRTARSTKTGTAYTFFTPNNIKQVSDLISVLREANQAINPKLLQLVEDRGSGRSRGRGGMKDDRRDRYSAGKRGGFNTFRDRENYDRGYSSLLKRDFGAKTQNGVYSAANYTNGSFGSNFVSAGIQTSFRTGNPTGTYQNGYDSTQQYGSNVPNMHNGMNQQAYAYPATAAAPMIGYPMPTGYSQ
UniProt Q15797: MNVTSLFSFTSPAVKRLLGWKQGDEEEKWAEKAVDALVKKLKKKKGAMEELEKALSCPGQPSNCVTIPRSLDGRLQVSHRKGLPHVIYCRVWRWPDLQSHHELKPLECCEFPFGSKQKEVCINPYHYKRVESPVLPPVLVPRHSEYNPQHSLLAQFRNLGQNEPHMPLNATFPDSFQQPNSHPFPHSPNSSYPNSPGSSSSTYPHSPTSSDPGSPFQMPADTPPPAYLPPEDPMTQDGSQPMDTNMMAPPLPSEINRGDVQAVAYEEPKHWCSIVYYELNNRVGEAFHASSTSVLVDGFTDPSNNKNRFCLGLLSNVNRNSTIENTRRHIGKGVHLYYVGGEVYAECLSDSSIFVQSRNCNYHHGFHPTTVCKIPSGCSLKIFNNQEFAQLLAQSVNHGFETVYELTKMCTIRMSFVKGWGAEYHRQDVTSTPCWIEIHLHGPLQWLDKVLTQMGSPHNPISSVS
UniProt Q99717, residues 2-465: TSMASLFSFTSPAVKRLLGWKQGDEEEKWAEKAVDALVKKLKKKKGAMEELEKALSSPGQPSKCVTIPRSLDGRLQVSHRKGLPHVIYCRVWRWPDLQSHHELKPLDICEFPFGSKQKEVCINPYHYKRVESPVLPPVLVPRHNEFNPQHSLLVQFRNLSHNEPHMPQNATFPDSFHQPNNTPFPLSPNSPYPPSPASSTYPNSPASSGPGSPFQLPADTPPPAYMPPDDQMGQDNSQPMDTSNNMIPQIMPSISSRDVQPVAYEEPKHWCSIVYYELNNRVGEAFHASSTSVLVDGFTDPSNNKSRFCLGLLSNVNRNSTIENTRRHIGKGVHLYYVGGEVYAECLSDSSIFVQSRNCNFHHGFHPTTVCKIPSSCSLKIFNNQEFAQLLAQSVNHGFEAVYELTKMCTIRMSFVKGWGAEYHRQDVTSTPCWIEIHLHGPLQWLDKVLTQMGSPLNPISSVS

No constants are given. Whether binding was seen depends on the method and setting. For some assays here: In cells and extracts the contact can be indirect. Some results given as binding are weak or reduced against the parent protein; the word gives no strength.

The target of test [1] is RNA helicase p68 (human p68 cDNA construct, expressed in transfected Cos7 cells) (human) (UniProt P17844). In words: GST pull-down from nuclear extracts of p68-transfected Cos7 cells, immunoblot with anti-p68.
Test [2] concerns the target p68 (endogenous, human PASMC nuclear extracts) (human) (UniProt P17844). In words: co-immunoprecipitation with anti-p68 from nuclear extracts of BMP4-treated PASMCs, immunoblot with anti-Smad1/5.
The target of test [3] is RNA helicase p68 (human p68 cDNA construct, expressed in transfected Cos7 cells) (human) (UniProt P17844). In words: GST pull-down from nuclear extracts of p68-transfected Cos7 cells.
Test [4] has the same target. In words: GST pull-down from RNase A-treated (250 µg/ml) nuclear extracts of p68-transfected Cos7 cells, immunoblot with anti-p68.
The next test concerns the target T1, DGCR8 (UniProt Q8WYQ5).
T1 sequence (looked up): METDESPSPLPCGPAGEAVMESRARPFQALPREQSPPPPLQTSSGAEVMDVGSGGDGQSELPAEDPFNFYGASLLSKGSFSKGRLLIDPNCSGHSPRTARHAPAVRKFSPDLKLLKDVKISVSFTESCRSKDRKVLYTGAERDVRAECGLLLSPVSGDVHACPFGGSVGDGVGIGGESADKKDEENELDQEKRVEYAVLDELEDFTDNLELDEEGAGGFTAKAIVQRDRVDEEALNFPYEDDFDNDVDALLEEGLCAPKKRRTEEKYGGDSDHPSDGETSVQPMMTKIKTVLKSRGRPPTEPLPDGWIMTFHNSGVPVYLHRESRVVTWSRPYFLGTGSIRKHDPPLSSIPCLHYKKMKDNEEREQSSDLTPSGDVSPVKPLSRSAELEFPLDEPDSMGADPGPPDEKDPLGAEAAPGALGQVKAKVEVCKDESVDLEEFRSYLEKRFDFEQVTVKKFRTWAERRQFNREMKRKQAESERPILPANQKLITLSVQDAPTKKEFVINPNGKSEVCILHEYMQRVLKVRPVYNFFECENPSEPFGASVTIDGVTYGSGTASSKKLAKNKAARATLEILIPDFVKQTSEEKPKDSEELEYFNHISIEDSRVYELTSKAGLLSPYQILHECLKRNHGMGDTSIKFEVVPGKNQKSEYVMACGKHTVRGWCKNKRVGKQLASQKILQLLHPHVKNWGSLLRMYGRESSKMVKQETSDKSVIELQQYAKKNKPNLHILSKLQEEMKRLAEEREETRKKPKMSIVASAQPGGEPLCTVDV
In words: GST-Smad1 interaction assay, unpublished observation, conditions not described.

For “GST-Smad1 (MH2 domain) fusion protein (from UniProt Q15797 271-465)”, the binding result in test [1] is given as “binds”.
With “Smad1 (endogenous, human PASMC nuclear extracts, detected with anti-Smad1/5 antibody) (from UniProt Q15797 1-465)”, in test [2], the binding result is given as “binds”.
“GST-Smad5 full length fusion protein (from UniProt Q99717 2-465)”: the binding entry in test [3], in test [1] and in test [4] was “binds” throughout.
For “GST-Smad3(FL) fusion protein (from UniProt P08515 1-218; P84022 2-425)”, the binding entry in test [3] and in test [1] was “binds” in each case.
For the substance “GST-Smad1 full length (FL) fusion protein (from UniProt P08515 1-218; Q15797 1-465)”, the binding result (in test [3]; with DGCR8; in test [1]; in test [4]) was “binds” each time.
